Some of the results follow.
Experiments:
Assay in all cases: NMR binding call after quantification (hit when 2 of 3 NMR criteria are met) (binary (1 = binding, 0 = not binding)); higher = binding
Details in all cases: RNA concentration 10 µM; fragment concentration 200 µM; 293 K
SARS-CoV-2 3_SL1 RNA = test system: SARS-CoV-2 3_SL1 RNA
SARS-CoV-2 3_SL1+2 RNA = test system: SARS-CoV-2 3_SL1+2 RNA
SARS-CoV-2 3_SL2 RNA = test system: SARS-CoV-2 3_SL2 RNA
SARS-CoV-2 3_SL3base RNA = test system: SARS-CoV-2 3_SL3base RNA
SARS-CoV-2 3_s2m RNA = test system: SARS-CoV-2 3_s2m RNA
SARS-CoV-2 5'-UTR RNA = test system: SARS-CoV-2 5'-UTR RNA
SARS-CoV-2 5_SL1 RNA = test system: SARS-CoV-2 5_SL1 RNA
SARS-CoV-2 5_SL1234 RNA = test system: SARS-CoV-2 5_SL1234 RNA
SARS-CoV-2 5_SL2+3 RNA = test system: SARS-CoV-2 5_SL2+3 RNA
SARS-CoV-2 5_SL4 RNA = test system: SARS-CoV-2 5_SL4 RNA
SARS-CoV-2 5_SL5 RNA = test system: SARS-CoV-2 5_SL5 RNA
SARS-CoV-2 5_SL5a RNA = test system: SARS-CoV-2 5_SL5a RNA
SARS-CoV-2 5_SL5b+c RNA = test system: SARS-CoV-2 5_SL5b+c RNA
SARS-CoV-2 5_SL5stem RNA = test system: SARS-CoV-2 5_SL5stem RNA
SARS-CoV-2 5_SL6 RNA = test system: SARS-CoV-2 5_SL6 RNA
SARS-CoV-2 3'-UTR RNA = test system: SARS-CoV-2 3'-UTR RNA

Cc1ccc(C(=O)Nc2nnc[nH]2)cc1C
NMR binding call (SARS-CoV-2 3_SL1 RNA): 0 | NMR binding call (SARS-CoV-2 3_SL1+2 RNA): 0 | NMR binding call (SARS-CoV-2 3_SL2 RNA): 0 | NMR binding call (SARS-CoV-2 3_SL3base RNA): 0 | NMR binding call (SARS-CoV-2 3_s2m RNA): 0 | NMR binding call (SARS-CoV-2 5'-UTR RNA): 0 | NMR binding call (SARS-CoV-2 5_SL1 RNA): 0 | NMR binding call (SARS-CoV-2 5_SL1234 RNA): 0 | NMR binding call (SARS-CoV-2 5_SL2+3 RNA): 0 | NMR binding call (SARS-CoV-2 5_SL4 RNA): 0 | NMR binding call (SARS-CoV-2 5_SL5 RNA): 0 | NMR binding call (SARS-CoV-2 5_SL5a RNA): 0 | NMR binding call (SARS-CoV-2 5_SL5b+c RNA): 0 | NMR binding call (SARS-CoV-2 5_SL5stem RNA): 0 | NMR binding call (SARS-CoV-2 5_SL6 RNA): 0

O=C1CN(Cc2ccccc2)CC(=O)N1
NMR binding call (SARS-CoV-2 3'-UTR RNA): 0 | NMR binding call (SARS-CoV-2 3_SL1 RNA): 0 | NMR binding call (SARS-CoV-2 3_SL2 RNA): 0 | NMR binding call (SARS-CoV-2 3_SL3base RNA): 0 | NMR binding call (SARS-CoV-2 3_s2m RNA): 0 | NMR binding call (SARS-CoV-2 5'-UTR RNA): 0 | NMR binding call (SARS-CoV-2 5_SL1 RNA): 0 | NMR binding call (SARS-CoV-2 5_SL1234 RNA): 0 | NMR binding call (SARS-CoV-2 5_SL2+3 RNA): 0 | NMR binding call (SARS-CoV-2 5_SL4 RNA): 0 | NMR binding call (SARS-CoV-2 5_SL5 RNA): 0 | NMR binding call (SARS-CoV-2 5_SL5a RNA): 0 | NMR binding call (SARS-CoV-2 5_SL5b+c RNA): 0 | NMR binding call (SARS-CoV-2 5_SL5stem RNA): 0 | NMR binding call (SARS-CoV-2 5_SL6 RNA): 0

O=C(Cc1ccccc1)N1CCc2ccccc21
NMR binding call (SARS-CoV-2 3_SL1 RNA): 0 | NMR binding call (SARS-CoV-2 3_SL1+2 RNA): 0 | NMR binding call (SARS-CoV-2 3_SL2 RNA): 0 | NMR binding call (SARS-CoV-2 3_SL3base RNA): 0 | NMR binding call (SARS-CoV-2 3_s2m RNA): 0 | NMR binding call (SARS-CoV-2 5'-UTR RNA): 0 | NMR binding call (SARS-CoV-2 5_SL1 RNA): 0 | NMR binding call (SARS-CoV-2 5_SL1234 RNA): 0 | NMR binding call (SARS-CoV-2 5_SL2+3 RNA): 0 | NMR binding call (SARS-CoV-2 5_SL4 RNA): 0 | NMR binding call (SARS-CoV-2 5_SL5 RNA): 0 | NMR binding call (SARS-CoV-2 5_SL5a RNA): 0 | NMR binding call (SARS-CoV-2 5_SL5b+c RNA): 0 | NMR binding call (SARS-CoV-2 5_SL5stem RNA): 0 | NMR binding call (SARS-CoV-2 5_SL6 RNA): 0

O=C(NCCc1ccncc1)NC1CCCCC1
NMR binding call (SARS-CoV-2 3_SL1 RNA): 0 | NMR binding call (SARS-CoV-2 3_SL1+2 RNA): 0 | NMR binding call (SARS-CoV-2 3_SL2 RNA): 0 | NMR binding call (SARS-CoV-2 3_SL3base RNA): 0 | NMR binding call (SARS-CoV-2 3_s2m RNA): 0 | NMR binding call (SARS-CoV-2 5'-UTR RNA): 0 | NMR binding call (SARS-CoV-2 5_SL1 RNA): 0 | NMR binding call (SARS-CoV-2 5_SL1234 RNA): 0 | NMR binding call (SARS-CoV-2 5_SL4 RNA): 0 | NMR binding call (SARS-CoV-2 5_SL5b+c RNA): 0

Nc1ncncc1-c1ccc(Cl)cc1
NMR binding call (SARS-CoV-2 3_SL1 RNA): 0 | NMR binding call (SARS-CoV-2 3_SL1+2 RNA): 0 | NMR binding call (SARS-CoV-2 3_SL2 RNA): 0 | NMR binding call (SARS-CoV-2 3_SL3base RNA): 0 | NMR binding call (SARS-CoV-2 3_s2m RNA): 0 | NMR binding call (SARS-CoV-2 5'-UTR RNA): 0 | NMR binding call (SARS-CoV-2 5_SL1 RNA): 0 | NMR binding call (SARS-CoV-2 5_SL2+3 RNA): 0 | NMR binding call (SARS-CoV-2 5_SL4 RNA): 0 | NMR binding call (SARS-CoV-2 5_SL5 RNA): 0 | NMR binding call (SARS-CoV-2 5_SL5a RNA): 0 | NMR binding call (SARS-CoV-2 5_SL5b+c RNA): 0 | NMR binding call (SARS-CoV-2 5_SL6 RNA): 0

O=C(Nc1ccccn1)c1cnccn1
NMR binding call (SARS-CoV-2 3_SL1 RNA): 0 | NMR binding call (SARS-CoV-2 3_SL1+2 RNA): 0 | NMR binding call (SARS-CoV-2 3_SL2 RNA): 0 | NMR binding call (SARS-CoV-2 3_SL3base RNA): 0 | NMR binding call (SARS-CoV-2 3_s2m RNA): 0 | NMR binding call (SARS-CoV-2 5'-UTR RNA): 1 | NMR binding call (SARS-CoV-2 5_SL1 RNA): 0 | NMR binding call (SARS-CoV-2 5_SL1234 RNA): 0 | NMR binding call (SARS-CoV-2 5_SL2+3 RNA): 0 | NMR binding call (SARS-CoV-2 5_SL4 RNA): 0 | NMR binding call (SARS-CoV-2 5_SL5 RNA): 1 | NMR binding call (SARS-CoV-2 5_SL5a RNA): 0 | NMR binding call (SARS-CoV-2 5_SL5b+c RNA): 0 | NMR binding call (SARS-CoV-2 5_SL5stem RNA): 0 | NMR binding call (SARS-CoV-2 5_SL6 RNA): 0

COc1ccc(Nc2ncnc3[nH]cnc23)cc1
NMR binding call (SARS-CoV-2 3'-UTR RNA): 1 | NMR binding call (SARS-CoV-2 3_SL1 RNA): 0 | NMR binding call (SARS-CoV-2 3_SL2 RNA): 0 | NMR binding call (SARS-CoV-2 3_SL3base RNA): 1 | NMR binding call (SARS-CoV-2 5'-UTR RNA): 1 | NMR binding call (SARS-CoV-2 5_SL1 RNA): 0 | NMR binding call (SARS-CoV-2 5_SL2+3 RNA): 0 | NMR binding call (SARS-CoV-2 5_SL5 RNA): 1 | NMR binding call (SARS-CoV-2 5_SL5b+c RNA): 0

Cc1cccc(C(=O)Nc2ccc(C)cc2O)c1
NMR binding call (SARS-CoV-2 3_SL1 RNA): 0 | NMR binding call (SARS-CoV-2 3_SL1+2 RNA): 0 | NMR binding call (SARS-CoV-2 3_SL2 RNA): 0 | NMR binding call (SARS-CoV-2 3_SL3base RNA): 0 | NMR binding call (SARS-CoV-2 3_s2m RNA): 0 | NMR binding call (SARS-CoV-2 5'-UTR RNA): 0 | NMR binding call (SARS-CoV-2 5_SL1 RNA): 0 | NMR binding call (SARS-CoV-2 5_SL1234 RNA): 0 | NMR binding call (SARS-CoV-2 5_SL2+3 RNA): 0 | NMR binding call (SARS-CoV-2 5_SL4 RNA): 0 | NMR binding call (SARS-CoV-2 5_SL5 RNA): 0 | NMR binding call (SARS-CoV-2 5_SL5a RNA): 0 | NMR binding call (SARS-CoV-2 5_SL5b+c RNA): 0 | NMR binding call (SARS-CoV-2 5_SL5stem RNA): 0 | NMR binding call (SARS-CoV-2 5_SL6 RNA): 0

Cc1ccccc1OCC(=O)Nc1ncccn1
NMR binding call (SARS-CoV-2 3_SL1 RNA): 0 | NMR binding call (SARS-CoV-2 3_SL1+2 RNA): 0 | NMR binding call (SARS-CoV-2 3_SL2 RNA): 0 | NMR binding call (SARS-CoV-2 3_SL3base RNA): 0 | NMR binding call (SARS-CoV-2 3_s2m RNA): 0 | NMR binding call (SARS-CoV-2 5'-UTR RNA): 1 | NMR binding call (SARS-CoV-2 5_SL1 RNA): 0 | NMR binding call (SARS-CoV-2 5_SL1234 RNA): 0 | NMR binding call (SARS-CoV-2 5_SL2+3 RNA): 0 | NMR binding call (SARS-CoV-2 5_SL4 RNA): 0 | NMR binding call (SARS-CoV-2 5_SL5a RNA): 0 | NMR binding call (SARS-CoV-2 5_SL5b+c RNA): 0 | NMR binding call (SARS-CoV-2 5_SL5stem RNA): 0 | NMR binding call (SARS-CoV-2 5_SL6 RNA): 0
